# No constants are given. Whether binding was seen depends on the method and setting. In cells and extracts the contact can be indirect. Binding can be weak; no strength is given.
# By UniProt entry, the sequences of proteins in these tests, tags left out. Where a name states a change or a piece, a line headed by the entry shows the natural chain unless it says otherwise.
# UniProt Q6P5Z2: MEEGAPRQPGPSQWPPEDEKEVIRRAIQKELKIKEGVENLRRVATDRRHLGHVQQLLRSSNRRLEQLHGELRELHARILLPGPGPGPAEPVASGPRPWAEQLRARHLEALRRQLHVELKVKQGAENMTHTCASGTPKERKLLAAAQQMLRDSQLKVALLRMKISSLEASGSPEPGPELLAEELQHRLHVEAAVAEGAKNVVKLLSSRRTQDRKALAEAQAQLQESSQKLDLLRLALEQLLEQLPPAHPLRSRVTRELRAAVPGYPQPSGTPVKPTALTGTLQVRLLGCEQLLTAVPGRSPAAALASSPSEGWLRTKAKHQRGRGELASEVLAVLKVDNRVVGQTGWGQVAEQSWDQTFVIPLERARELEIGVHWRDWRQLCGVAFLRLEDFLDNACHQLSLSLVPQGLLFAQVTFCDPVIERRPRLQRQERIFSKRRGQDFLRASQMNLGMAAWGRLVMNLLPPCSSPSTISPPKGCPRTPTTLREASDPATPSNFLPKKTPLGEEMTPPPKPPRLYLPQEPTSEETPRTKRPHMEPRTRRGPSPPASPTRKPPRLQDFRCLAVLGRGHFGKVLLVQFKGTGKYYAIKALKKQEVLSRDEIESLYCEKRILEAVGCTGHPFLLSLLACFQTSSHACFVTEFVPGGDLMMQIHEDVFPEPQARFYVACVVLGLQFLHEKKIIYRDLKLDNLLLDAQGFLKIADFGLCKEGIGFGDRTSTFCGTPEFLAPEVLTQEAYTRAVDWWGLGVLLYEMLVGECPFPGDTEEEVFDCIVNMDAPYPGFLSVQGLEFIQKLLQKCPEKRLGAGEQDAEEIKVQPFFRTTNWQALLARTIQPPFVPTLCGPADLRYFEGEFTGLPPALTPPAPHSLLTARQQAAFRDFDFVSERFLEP
# UniProt Q8N392: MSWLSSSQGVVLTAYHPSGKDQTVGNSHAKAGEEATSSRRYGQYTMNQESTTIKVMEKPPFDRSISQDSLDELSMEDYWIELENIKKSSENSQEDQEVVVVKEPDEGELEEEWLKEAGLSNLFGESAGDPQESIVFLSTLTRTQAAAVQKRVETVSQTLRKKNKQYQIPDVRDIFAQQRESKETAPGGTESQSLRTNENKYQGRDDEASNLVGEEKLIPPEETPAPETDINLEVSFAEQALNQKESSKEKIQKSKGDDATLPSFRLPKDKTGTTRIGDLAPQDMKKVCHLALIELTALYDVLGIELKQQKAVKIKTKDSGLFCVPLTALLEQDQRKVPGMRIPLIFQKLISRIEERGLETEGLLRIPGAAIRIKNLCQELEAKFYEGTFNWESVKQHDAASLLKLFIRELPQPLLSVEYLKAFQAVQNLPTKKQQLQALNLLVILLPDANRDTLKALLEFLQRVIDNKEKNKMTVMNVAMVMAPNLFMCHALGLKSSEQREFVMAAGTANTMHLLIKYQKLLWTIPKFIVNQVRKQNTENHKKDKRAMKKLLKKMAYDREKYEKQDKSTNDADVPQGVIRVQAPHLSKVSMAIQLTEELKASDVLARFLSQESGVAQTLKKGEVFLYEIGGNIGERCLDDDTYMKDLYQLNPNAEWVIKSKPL
# Molecular target: Flag-PKN3 WT (protein kinase N3) (human) (UniProt Q6P5Z2)
# Assay: co-IP; Flag-PKN3 precipitated with Anti-Flag Affinity Gel from lysates of transfected MDA-MB-231 cells (1% Triton X-100 in TBS, 50 mM Tris-HCl pH 7.1, 150 mM NaCl), 3 h, 4 °C; GFP-ARHGAP18 variants detected by immunoblot
row,Substance,binding
1,GFP-ARHGAP18 ΔC525 (from UniProt Q8N392) (domain or fragment),binds
2,GFP-ARHGAP18 ΔGAP (from UniProt Q8N392),binds
